For this assay, the target named is PARP2-QFRD (human) (UniProt Q9UGN5). Put plainly: SEC-MALS; Superdex 200 Increase 10/300; HEPES 50 mM pH 7.5, NaCl 150 mM, MgCl2 1 mM, EDTA 0.1 mM, TCEP 0.1 mM; PARP2-QFRD at 30 μM, Nuc165 at 4.61 μM, each alone; both purified. A general note: Size exclusion chromatography separates by hydrodynamic size, large species first.

Chains of the proteins cited; added tags and fusions are not shown. Lines headed by an entry give the natural chain unless they say otherwise; changes in a name come on top. A line that says so, or that is headed by a name, gives the form on record, which may keep a tag or linker.
PARP2-QFRD (Q9UGN5-2, form named): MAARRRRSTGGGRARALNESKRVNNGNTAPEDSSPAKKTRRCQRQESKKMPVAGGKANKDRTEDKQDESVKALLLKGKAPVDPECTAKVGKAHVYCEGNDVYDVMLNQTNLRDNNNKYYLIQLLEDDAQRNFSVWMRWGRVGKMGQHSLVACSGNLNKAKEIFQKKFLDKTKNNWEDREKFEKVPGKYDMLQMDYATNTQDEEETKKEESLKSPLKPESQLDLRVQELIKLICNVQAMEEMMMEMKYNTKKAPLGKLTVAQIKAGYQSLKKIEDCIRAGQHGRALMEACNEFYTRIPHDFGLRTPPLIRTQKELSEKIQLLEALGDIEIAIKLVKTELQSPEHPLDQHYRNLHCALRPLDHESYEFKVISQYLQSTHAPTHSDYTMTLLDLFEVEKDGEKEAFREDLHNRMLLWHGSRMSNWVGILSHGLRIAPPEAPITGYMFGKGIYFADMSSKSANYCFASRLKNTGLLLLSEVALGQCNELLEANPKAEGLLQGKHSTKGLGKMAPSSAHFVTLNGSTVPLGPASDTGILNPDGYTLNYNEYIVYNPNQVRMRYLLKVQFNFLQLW

These are yes or no findings as the source states them, for the method shown.

On to “PARP2-QFRD (from UniProt Q9UGN5-2 1-570) (enzyme)”, for which the binding entry is on record as “no binding (tested: 30 μM)”.
